Data published in PubChem BioAssay AID588590 (National Center for Advancing Translational Sciences (NCATS), 2011).
The campaign covered roughly 390,000 compounds. About 4,000 (1%) were called active. The inconclusive results got no clear call from the source; some entries with a clear call stand among them for comparison. Calls follow the shape of the dose curve; as a rule, active = well fitted inhibition curve with a large enough effect; inconclusive = small, poorly fitted or top-dose-only effect, or another doubt; inactive = no such curve, though single readings can be large or run the other way. Potencies beside an inconclusive call are fits to weak or partial responses and may not hold up.
Potency is read from the fitted curve at half-maximal effect.

The chains behind the UniProt entries cited, without tags or fusion partners. Where a name states a change or a piece, a line headed by the entry shows the natural chain unless it says otherwise.
UniProt Q9UNA4: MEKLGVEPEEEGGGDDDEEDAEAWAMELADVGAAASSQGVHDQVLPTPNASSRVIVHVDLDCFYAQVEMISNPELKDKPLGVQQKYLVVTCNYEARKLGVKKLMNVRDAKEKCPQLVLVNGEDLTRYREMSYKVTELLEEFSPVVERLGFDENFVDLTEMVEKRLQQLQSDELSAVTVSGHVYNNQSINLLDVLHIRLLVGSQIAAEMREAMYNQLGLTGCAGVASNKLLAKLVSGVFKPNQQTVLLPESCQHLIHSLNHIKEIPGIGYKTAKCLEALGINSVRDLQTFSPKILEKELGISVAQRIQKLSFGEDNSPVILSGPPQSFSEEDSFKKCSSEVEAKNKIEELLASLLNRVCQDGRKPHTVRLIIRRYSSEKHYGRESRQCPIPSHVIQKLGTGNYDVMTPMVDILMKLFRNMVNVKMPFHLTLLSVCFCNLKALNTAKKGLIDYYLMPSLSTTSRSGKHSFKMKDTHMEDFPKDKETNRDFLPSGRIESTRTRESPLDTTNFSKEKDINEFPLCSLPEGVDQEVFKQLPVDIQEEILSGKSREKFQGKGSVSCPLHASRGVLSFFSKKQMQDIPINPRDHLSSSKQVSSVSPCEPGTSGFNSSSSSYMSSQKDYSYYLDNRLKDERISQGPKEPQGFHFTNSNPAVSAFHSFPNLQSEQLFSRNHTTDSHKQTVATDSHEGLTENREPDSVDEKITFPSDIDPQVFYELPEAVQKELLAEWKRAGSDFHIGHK

The compounds below were run against DNA polymerase iota (Homo sapiens) (UniProt Q9UNA4) (assay: qHTS for Inhibitors of Polymerase Iota). Settings: Pol iota fluorescent replication assay, 10 min; series mostly up to 115 µM.
Outline: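 Pol iota at 10 nM preincubated 15 min with compounds at room temperature; reaction started with fluorescent substrate, 50 nM final. Fluorescence read kinetically at 0 and 10 min; buffer-only wells as negative control.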
With `NC(=O)c1cccc(-c2cnc(N)c(C(=O)c3cccnc3)n2)c1` the Potency was inconclusive: 14.1 µM [inhibitor, partial curve].
`Cc1nnc(N/N=C/c2ccc(Br)cc2)n1N` was tested, and the Potency was inconclusive: 10 µM [inhibitor, full curve, poor fit].
For `CC(=O)N1CCN(c2csc3ccc(Br)cc3c2=O)CC1`, the Potency was “inactive”.
`COc1ccccc1NC(=O)Cn1nnc(C(=O)Nc2ccccc2Br)c1N` was tested, and the Potency was inconclusive: 89.1 µM [inhibitor, single point].
`O=C(NCc1ccco1)c1cccc2c1C(=O)c1ccc(N3CCCC3)cc1S2(=O)=O` was tested, and the Potency was inconclusive: 39.8 µM [inhibitor, single point].
`CC(CNC(=S)Nc1cc(F)cc(F)c1)CSc1ccc(Cl)cc1` (stereo not given) was tested, and the Potency was inconclusive: 79.4 µM [inhibitor, single point].
With `COc1ccccc1C(c1c(O)nc(SC)[nH]c1=O)c1c(O)nc(SC)[nH]c1=O` the Potency was “inactive”.
`Cc1ccccc1NC(=O)CSC(N)=O` was tested, and the Potency was inconclusive: 12.6 µM [inhibitor, partial curve, poor fit].
With `N#Cc1ccccc1NC(=O)C(=O)NCC(c1ccc2c(c1)OCO2)N1CCOCC1` (stereo not given) the Potency was inconclusive: 89.1 µM [inhibitor, single point].
In the case of `Cc1cc(C)n(S(=O)(=O)c2cc(C(=O)O)c(Cl)cc2Cl)n1`, the Potency is reported as inconclusive: 112 µM [inhibitor, partial curve, poor fit].
For `CCOC(=O)C1=C(C)N(c2ccccc2)C(=O)/C1=C\c1ccc(O)c(OC)c1`, the Potency was inconclusive: 31.6 µM [inhibitor, single point].
With `CC(=O)N1CCOc2cc(S(=O)(=O)Nc3c(C)cccc3C(C)C)c(Cl)cc21` the Potency was active: 79.4 µM.
For `CCCOc1cccc(C(=O)N2CCN(C(=O)C3CCCO3)CC2)c1` (stereo not given), the Potency was “inactive”.
With `O=C(COC(=O)c1ccc2ncsc2c1)Nc1cc([N+](=O)[O-])ccc1Cl` the Potency was inconclusive: 39.8 µM [inhibitor, single point].
In the case of `COc1ccc(NC(=O)C(CCSC)NC(N)=O)cc1NS(=O)(=O)c1ccc(F)cc1` (stereo not given), the Potency is reported as “inactive”.
In the case of `O=C(Cc1ccccc1)Nc1nnc(-c2ccco2)s1`, the Potency is reported as inconclusive: 25.1 µM [inhibitor, partial curve, poor fit].
`OCC1(Cc2ccc(F)cc2)CCCN(Cc2ccc(F)cc2Cl)C1` (stereo not given) was tested, and the Potency was inconclusive: 89.1 µM [inhibitor, single point].
`O=C1/C(=C/c2ccc(O)cc2)COc2ccccc21` was tested, and the Potency was inconclusive: 39.8 µM [inhibitor, partial curve].
With `CCOc1ccc(CNC(=O)c2cccn2-c2nnc(N3CCCCC3)s2)cc1OC` the Potency was “inactive”.
In the case of `O=C1CCN(Cc2ccccc2)CCN1[C@H](CSc1ccccc1)c1ccccc1`, the Potency is reported as inconclusive: 56.2 µM [inhibitor, single point].
For `COC(=O)c1ccc(-c2sc3nc(N4CCOCC4)c4c(c3c2N)CCCC4)o1`, the Potency was inconclusive: 25.1 µM [inhibitor, partial curve].
`O=C(COc1ccc2oc(-c3ccccc3)cc(=O)c2c1)NCc1ccco1` was tested, and the Potency was inconclusive: 28.2 µM [inhibitor, full curve, poor fit].
For `C=C(Br)COC(c1ccco1)[C@H](Cc1ccccc1)NC(=O)OC(C)(C)C` (stereo not given in full), the Potency was “inactive”.
With `O=C(Cc1ccc(-n2cccc2)cc1)N1CCN(c2ccccc2F)CC1` the Potency was inconclusive: 56.2 µM [inhibitor, partial curve, poor fit].
In the case of `COc1ccc(-n2c(N)c(C(=O)NCc3ccco3)c3nc4ccccc4nc32)cc1`, the Potency is reported as inconclusive: 20 µM [inhibitor, partial curve].
In the case of `CCC1CCCCN1CCCNC(=O)C1CCN(S(=O)(=O)N2CCCCC2)CC1` (stereo not given), the Potency is reported as “inactive”.
`O=S1(=O)CSCS(=O)(=O)C1` was tested, and the Potency was inconclusive: 14.1 µM [inhibitor, full curve, poor fit].
With `COc1ccc(-c2cccc(-c3nc4ccc(Cl)cn4c3NC3CCCCC3)c2)cc1` the Potency was inconclusive: 63.1 µM [inhibitor, partial curve, poor fit].
`O=C(NC1CCCCC1)c1cc2nc(-c3ccco3)cc(C(F)(F)F)n2n1` was tested, and the Potency was inconclusive: 89.1 µM [inhibitor, partial curve, poor fit].
`NCCCCc1cn(CC(=O)N2CCNCC2)nn1` was tested, and the Potency was inconclusive: 63.1 µM [inhibitor, partial curve, poor fit].
`N#CC1=C(SCC(=O)Nc2ccccc2)NC(=O)CC1c1ccco1` (stereo not given) was tested, and the Potency was inconclusive: 70.8 µM [inhibitor, partial curve].
With `CC(Sc1nc(-c2ccccc2)cc(C(F)(F)F)n1)C(=O)NCCN1CCOCC1` (stereo not given) the Potency was inconclusive: 79.4 µM [inhibitor, single point].
`O=C(NCc1ccncc1)c1ccc(NS(=O)(=O)c2cccc([N+](=O)[O-])c2)cc1` was tested, and the Potency was inconclusive: 89.1 µM [inhibitor, single point].
In the case of `CCOc1ccc(S(=O)(=O)n2ccnc2)c2ccccc12`, the Potency is reported as inconclusive: 89.1 µM [inhibitor, single point].
In the case of `O=C(O)/C(=C\c1cccc(F)c1)c1ccc(S(=O)(=O)N2CCCCC2)s1`, the Potency is reported as inconclusive: 15.8 µM [inhibitor, full curve, poor fit].
In the case of `Cc1ccc2c(c1)COc1c3ccc(C(=O)O)cc3nn1-2`, the Potency is reported as inconclusive: 17.8 µM [inhibitor, partial curve].
For `O=C(CN1C(=O)c2ccccc2S1(=O)=O)Nc1ncc([N+](=O)[O-])s1`, the Potency was inconclusive: 10 µM [inhibitor, full curve, poor fit].
`COc1cc(C(c2sc3nc(C)nn3c2O)N2CCC3(CC2)OCCO3)cc(OC)c1OC` (stereo not given) was tested, and the Potency was “inactive”.
For `COc1ccc(/C=C2\SC(=S)N(CC(=O)OCC(=O)Nc3cc(Cl)cc(Cl)c3)C2=O)cc1`, the Potency was inconclusive: 22.4 µM [inhibitor, partial curve].
For `CCCC[n+]1c(C)sc2cc(OC)ccc21`, the Potency was inconclusive: 39.8 µM [inhibitor, single point].
For `CCn1c(SCC(=O)Nc2ccc(OC)c(OC)c2)nc2c(c1=O)SCC2`, the Potency was “inactive”.
With `O=C(Cc1cccs1)Nc1ccc(Cl)cc1` the Potency was inconclusive: 25.1 µM [inhibitor, partial curve, poor fit].
With `COC(=O)[C@]1(C)N[C@H](CN(C)C(C)=O)[C@@H]2C(=O)N(Cc3ccccc3)C(=O)[C@@H]21` the Potency was inconclusive: 14.1 µM [inhibitor, partial curve].
In the case of `COCCOCC(O)CN1CCN(c2ccccc2)CC1` (stereo not given), the Potency is reported as inconclusive: 4.47 µM [inhibitor, partial curve, poor fit].
With `CCN(C[C@H]1N[C@@](CC)(C(=O)OC)[C@H]2C(=O)N(Cc3ccccc3)C(=O)[C@@H]12)C(=O)c1ccc(F)cc1` the Potency was inconclusive: 70.8 µM [inhibitor, partial curve].
In the case of `Cc1cccc(OCc2nn[nH]n2)c1C`, the Potency is reported as inconclusive: 2.82 µM [inhibitor, full curve, poor fit].
`CCC1Nc2ncnc(N3CCN(c4ccccc4)CC3)c2N(Cc2ccc(OC)cc2)C1=O` (stereo not given) was tested, and the Potency was inconclusive: 39.8 µM [inhibitor, single point].
`COc1ccc(CCNC(=O)C(=O)Nc2ccc(C)cc2)cc1OC` was tested, and the Potency was inconclusive: 39.8 µM [inhibitor, partial curve, poor fit].
With `CCCCC(=O)NC(c1ccc(N(CC)CC)cc1)c1ccc2cccnc2c1O` (stereo not given) the Potency was inconclusive: 100 µM [inhibitor, single point].
In the case of `Oc1oc(-c2ccco2)nc1C=Nc1ccccc1`, the Potency is reported as inconclusive: 28.2 µM [inhibitor, single point].
For `CCOC(=O)c1c(C)[nH]c(C)c1C(=O)CSc1nnc(-c2ccc(OC(F)F)cc2)o1`, the Potency was inconclusive: 31.6 µM [inhibitor, partial curve, poor fit].
With `COc1cc(-c2cccs2)cc(=O)c2c(C)oc(C)c12` the Potency was inconclusive: 15.8 µM [inhibitor, single point].
`N#CCCn1nc2c(c1N)CCC2` was tested, and the Potency was “inactive”.
For `CSc1ccc(/C=N/NC(=O)CN2CCN(Cc3ccc(C)cc3)CC2)cc1`, the Potency was “inactive”.
In the case of `NC(=O)c1ccc(N=Cc2c(O)ccc3ccccc23)cc1`, the Potency is reported as inconclusive: 79.4 µM [inhibitor, partial curve].
In the case of `O=C(CCc1ccccc1)Nc1ccc(NC(=O)C2CC2)nc1`, the Potency is reported as inconclusive: 39.8 µM [inhibitor, single point].
In the case of `COc1cc(/C=N/NC(=O)c2ccncc2)ccc1OCCN1CCCCC1`, the Potency is reported as inconclusive: 100 µM [inhibitor, partial curve, poor fit].
`CCc1cccc(OCC(=O)Nc2ccc(C)c(S(=O)(=O)N3CCCCCC3)c2)c1` was tested, and the Potency was inconclusive: 79.4 µM [inhibitor, partial curve, poor fit].
In the case of `COc1cc(/C=C/C(=O)c2ccccc2O)cc(OC)c1OC`, the Potency is reported as inconclusive: 22.4 µM [inhibitor, partial curve, poor fit].
For `COc1ccc(C=NNC(=S)NN=Cc2ccc(OC)c(OC)c2)cc1OC`, the Potency was inconclusive: 31.6 µM [inhibitor, single point].
With `Clc1ccc(OCc2cc(-c3ccccc3)no2)cc1Cl` the Potency was inconclusive: 50.1 µM [inhibitor, partial curve, poor fit].
For `O=C(Nc1ccccc1C(F)(F)F)NC1(C(=O)N2CCOCC2)CCCCC1`, the Potency was active: 14.1 µM.
In the case of `CC(C)(C)c1ccc(C(=O)Nc2cc(-c3nc4ccccc4o3)ccc2Cl)cc1`, the Potency is reported as “inactive”.
With `Cc1ccc(CN2CCC(CNC(=O)Nc3cccc(Cl)c3C)C2)cc1` (stereo not given) the Potency was “inactive”.
`CC1=NN(C(N)=S)C(=O)C1N=Nc1c(Cl)cc([N+](=O)[O-])cc1Cl` (stereo not given) was tested, and the Potency was “inactive”.
